Results: article PMC6771040 (Cancers, 2019)
Read-outs that look alike come from different tables or passages of the source.

Tests used:
[1] = system: PCa lesions; settings: cited from earlier work
[2] = general procedure: Fmoc solid-phase peptide synthesis; Rink Amide 4-methylbenzhydrylamine resin (loading 0.53 mmol/g); PyBOP/DIEA; settings: whole synthesis

For C[N+](C)(C)CCO [choline], the “sensitivity in detecting PCa lesions” value ([1]; choline PET) is given as 50%.
In the case of Glu-Urea-Glu-Aoc-Lys(NOTA)-(PEG)6-RM26, the crude mass [2] is reported as 10.6 mg, the isolated mass [2] is reported as 2.6 mg and the “final HPLC purity” value ([2]; UV 220 nm, scale of the general procedure 100 µmolar scale of the general procedure (0.1 mmol)) is reported as 95%. For the same molecule, the isolated yield ([2]; based on the initial loading of the resin, scale of the general procedure 100 µmolar scale of the general procedure (0.1 mmol)) was 10%.
In the case of OC[C@H]1O[C@@H](O)[C@H]([18F])[C@@H](O)[C@@H]1O [FDG, ^18F-flourodeoxyglucose], the “sensitivity in detecting PCa lesions” value ([1]; FDG-PET) is given as 37%.
